Results are given in words; binding and its absence hold for the method and conditions named. In cells and extracts the contact can be indirect. Some entries that bind do so weakly or less than the wild type.
Target: Sp1 transcription factor (human (endogenous in 293T)) (UniProt P08047)
Assay: co-IP; 2 ug Sp1-specific antibody or normal rabbit IgG added to 500 ug total protein of 293T lysate, overnight; captured on protein A sepharose; SIRT6 detected by western blotting

Amino acid sequences for entries named in this document (tags omitted).
UniProt P08047: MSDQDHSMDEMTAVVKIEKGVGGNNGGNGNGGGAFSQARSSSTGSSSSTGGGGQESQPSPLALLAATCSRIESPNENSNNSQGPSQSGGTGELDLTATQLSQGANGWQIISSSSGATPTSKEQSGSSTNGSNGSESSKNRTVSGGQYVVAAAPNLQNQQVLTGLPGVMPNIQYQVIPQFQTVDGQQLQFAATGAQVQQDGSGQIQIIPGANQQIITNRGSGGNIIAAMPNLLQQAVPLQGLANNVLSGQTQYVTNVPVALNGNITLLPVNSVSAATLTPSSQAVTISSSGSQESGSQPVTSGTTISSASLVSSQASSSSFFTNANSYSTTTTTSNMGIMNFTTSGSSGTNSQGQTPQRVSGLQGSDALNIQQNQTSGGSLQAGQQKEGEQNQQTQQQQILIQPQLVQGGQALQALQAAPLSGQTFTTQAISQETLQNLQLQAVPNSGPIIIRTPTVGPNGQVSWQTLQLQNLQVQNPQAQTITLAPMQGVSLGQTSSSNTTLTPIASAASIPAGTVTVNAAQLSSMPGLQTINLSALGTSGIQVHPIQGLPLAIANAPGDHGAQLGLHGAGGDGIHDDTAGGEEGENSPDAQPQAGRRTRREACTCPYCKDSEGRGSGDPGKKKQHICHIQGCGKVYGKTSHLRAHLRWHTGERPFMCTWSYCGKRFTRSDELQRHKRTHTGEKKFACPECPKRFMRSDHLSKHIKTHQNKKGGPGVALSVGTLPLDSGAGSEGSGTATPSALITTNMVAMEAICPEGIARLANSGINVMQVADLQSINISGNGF
UniProt Q8N6T7: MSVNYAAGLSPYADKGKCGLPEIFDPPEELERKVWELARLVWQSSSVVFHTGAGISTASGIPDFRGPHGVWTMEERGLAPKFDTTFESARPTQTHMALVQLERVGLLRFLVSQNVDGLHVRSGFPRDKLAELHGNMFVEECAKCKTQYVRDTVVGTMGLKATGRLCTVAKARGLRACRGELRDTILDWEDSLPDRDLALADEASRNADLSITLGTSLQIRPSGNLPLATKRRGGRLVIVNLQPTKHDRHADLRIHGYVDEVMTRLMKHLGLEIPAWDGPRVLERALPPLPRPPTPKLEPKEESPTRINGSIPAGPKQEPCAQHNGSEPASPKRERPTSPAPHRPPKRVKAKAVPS

SIRT6 (Sirtuin 6) (from UniProt Q8N6T7 1-355)
binding: binds

— publication PMC6755095
